Source: patent JP2020117470A
No constants are given. Whether binding was seen depends on the method and setting. Some entries that bind do so weakly or less than the wild type.

Sequences of proteins named here, by UniProt entry; tags and fusion partners are left off. Residues count along the entry.
UniProt P0C0I3, residues 34-571: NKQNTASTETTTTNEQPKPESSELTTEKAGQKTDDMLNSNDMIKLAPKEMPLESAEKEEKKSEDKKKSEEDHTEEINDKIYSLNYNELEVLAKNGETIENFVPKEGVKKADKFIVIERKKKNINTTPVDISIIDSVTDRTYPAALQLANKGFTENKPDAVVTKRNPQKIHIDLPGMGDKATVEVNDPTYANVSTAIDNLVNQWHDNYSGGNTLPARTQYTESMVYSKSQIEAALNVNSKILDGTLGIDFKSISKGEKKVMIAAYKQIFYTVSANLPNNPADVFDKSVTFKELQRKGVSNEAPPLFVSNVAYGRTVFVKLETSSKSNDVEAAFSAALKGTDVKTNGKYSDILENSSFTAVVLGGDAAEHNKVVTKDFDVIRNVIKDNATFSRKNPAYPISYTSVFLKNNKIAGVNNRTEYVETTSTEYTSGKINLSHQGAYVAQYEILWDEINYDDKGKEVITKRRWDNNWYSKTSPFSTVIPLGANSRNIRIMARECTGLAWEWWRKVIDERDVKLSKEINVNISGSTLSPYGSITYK

Target: Streptococcus pyogenesのStreptolysin O(SLO) (Streptococcus pyogenes) (UniProt P0C0I3)
Experiment: western blot, 10 ng SLO, HS1 at 1 μg/mL, anti-mouse IgG-HRP

B1: 抗体HS1 (antibody, V domains shown)
VH: EVQLQESGPSLVKPSQTLSLTCSVTGDSITSGYWNWIRKFPGNKFEYMGYISYGDSTYYNPSLKSRISITRDTSKNQYYLQLNSVTTEDTATYYCARLGNDYNWYFDVWGAGTTVTVSS
VL: DIQMNQSPSSLSASLGDTITITCHASQNINVWLSWYQQKPGNIPKLLIFKASNLYTGVPSRFSGSGSGTGFTLTISSLQPEDIATYYCQQGQTYPLTFGGGTKL
With B1 the binding was “binds”.
